# Reference: article PMC7819943, “Rice protein-binding microarrays: a tool to detect cis-acting elements near promoter regions in rice”
# The list shows a part of the results.
# Molecular target: T1, OsSMF1 (Oryza sativa, UniProt Q6ZLB0 1-436)
# T1 sequence: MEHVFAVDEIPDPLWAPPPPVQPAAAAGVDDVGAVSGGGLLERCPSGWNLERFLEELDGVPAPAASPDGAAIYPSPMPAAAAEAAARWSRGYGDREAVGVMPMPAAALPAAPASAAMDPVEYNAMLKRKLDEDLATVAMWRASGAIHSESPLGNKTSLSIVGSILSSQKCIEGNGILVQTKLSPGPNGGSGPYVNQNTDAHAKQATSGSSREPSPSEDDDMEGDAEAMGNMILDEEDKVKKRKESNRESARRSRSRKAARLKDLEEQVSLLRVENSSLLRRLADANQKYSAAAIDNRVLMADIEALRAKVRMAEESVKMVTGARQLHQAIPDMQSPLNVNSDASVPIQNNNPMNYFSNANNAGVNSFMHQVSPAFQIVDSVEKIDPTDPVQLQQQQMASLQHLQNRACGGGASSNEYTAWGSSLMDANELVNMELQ
# Test: protein-binding microarray (RPBM); PBS, 2% BSA, 51.3 ng/ul salmon testes DNA, 50 uM zinc acetate, 200 nM TF, 25 C, 1 h; high values mean tight binding
# Conditions: protein: recombinant; tags: N-terminal polyhistidine and DsRed monomer fusion (pET32a); chain copies: 2; label: CyDye5-dUTP incorporated in the synthesized complementary strand; 3' TTTTT single-stranded linker to array surface; dsDNA, one strand shown
# In short: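 An Axon 4000B scanner gave the binding signal as per-feature fluorescence intensity in arbitrary units. This followed washing of a custom Agilent array that had been incubated for 1 h at 25 °C with 200 nM protein in PBS, 2% BSA, salmon testes DNA and 50 µM zinc acetate. The proteins were transcription factors fused at the N-terminus to polyhistidine and DsRed, expressed in E. coli BL21-CodonPlus and purified on Ni–NTA.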
row,Sequence,binding signal
1,GACTTATTGGAGATGACAAGGCAAACCAGATTCTTGAAGCCGGAGTCACCTAGTGCAG,34400 fluorescence intensity (a.u.)
2,AAGATCTGTATGCCTCATGAGGGTTGGTGTGTAATACTCCCGGAGTCACCTAGTGCAG,3890 fluorescence intensity (a.u.)
3,CCCACTCTCGTCGTACGTACGTGTCCTCGGCTATATATACCGGAGTCACCTAGTGCAG,6500 fluorescence intensity (a.u.)
4,GCTGCTGCCTCGTCTCCGCTGCCGCGTCGCCCGTCACCGGCGGAGTCACCTAGTGCAG,4380 fluorescence intensity (a.u.)
5,TATTCTGATGGCTTAAAATTGTTGATGATGTGGCTTCTTGCGGAGTCACCTAGTGCAG,15600 fluorescence intensity (a.u.)
6,TGTGATTGGTGCCACCTCCTCCTCCTCTGCCTCTCTCCTCCGGAGTCACCTAGTGCAG,4980 fluorescence intensity (a.u.)
7,GCGCATTCGCGTCAGCATGTATTATAGTTTGTGTTTCAAACGGAGTCACCTAGTGCAG,6220 fluorescence intensity (a.u.)
8,GAACCTGTTTATCACCACGTATCAAATAACCCACTTAAAGCGGAGTCACCTAGTGCAG,3740 fluorescence intensity (a.u.)
9,TTGGTATCCTTGTGCACTTGCATATTTGCTGCGTGGCTTGCGGAGTCACCTAGTGCAG,3610 fluorescence intensity (a.u.)
10,GGAGTAGTGACCGTGTGTAGCCACGTGACATGTGCATGCCCGGAGTCACCTAGTGCAG,5500 fluorescence intensity (a.u.)
11,TGTGGTGGCTGAGTCATCGTGGGATCCACGTGGGCCCCACCGGAGTCACCTAGTGCAG,24700 fluorescence intensity (a.u.)
12,TTCCTATGGAGAATAGAAACTCGAAGCCCAAGATGGCACTCGGAGTCACCTAGTGCAG,26800 fluorescence intensity (a.u.)
13,AGCAGTGTAGAGGAGGAGGAGGCGGCGGCGGCGGCGGCGGCGGAGTCACCTAGTGCAG,3880 fluorescence intensity (a.u.)
14,GTTGCAGGTTGATGGCTTGAGCACACTGTCCCCTCCACCGCGGAGTCACCTAGTGCAG,3650 fluorescence intensity (a.u.)
15,ATCGAGCTAGGTAGGGCATAGGATCGGGTCGATCGAGGCGCGGAGTCACCTAGTGCAG,3310 fluorescence intensity (a.u.)
16,CACCTGCTGAATGCTGACTGCAGTTCCCTGCGTAGTGAAACGGAGTCACCTAGTGCAG,3330 fluorescence intensity (a.u.)
17,AATGCATTTTGATAGTTTAGGTTCTTCGGTGACACATATGCGGAGTCACCTAGTGCAG,4730 fluorescence intensity (a.u.)
18,GGACCAGCTACCCTCAGTCAATGACTAGGTGGGACCGGAACGGAGTCACCTAGTGCAG,3880 fluorescence intensity (a.u.)
19,CATGACCGTGCTTCGTCATGTCGCCCTGTGCCGCCCCGCTCGGAGTCACCTAGTGCAG,6790 fluorescence intensity (a.u.)
20,AAGTCAAGGCCAAGTCGTCGGGAACGTGGACATTCCGTAACGGAGTCACCTAGTGCAG,4030 fluorescence intensity (a.u.)
21,AGCGAGCGCGAGCCGAGTTGTGGGGTGTTGAGATCGCTCTCGGAGTCACCTAGTGCAG,22600 fluorescence intensity (a.u.)

# Rewritten bar-delimited: entries from further up.
row | Sequence | binding signal
3 | CCCACTCTCGTCGTACGTACGTGTCCTCGGCTATATATACCGGAGTCACCTAGTGCAG | 6500 fluorescence intensity (a.u.)
4 | GCTGCTGCCTCGTCTCCGCTGCCGCGTCGCCCGTCACCGGCGGAGTCACCTAGTGCAG | 4380 fluorescence intensity (a.u.)
5 | TATTCTGATGGCTTAAAATTGTTGATGATGTGGCTTCTTGCGGAGTCACCTAGTGCAG | 15600 fluorescence intensity (a.u.)

# Continuation.

row,Sequence,binding signal
1,CTTAAAAGATTCGTATCGCAATTTACACGCAATTTGTGTACGGAGTCACCTAGTGCAG,3200 fluorescence intensity (a.u.)
2,CCTTCCTACACCTCGCCACCTCCCGCACACCTCGTCGCCCCGGAGTCACCTAGTGCAG,3460 fluorescence intensity (a.u.)
3,TTTTCTAGACAATACGTGCACGATAATACGAGAGCCCGCTCGGAGTCACCTAGTGCAG,3490 fluorescence intensity (a.u.)
4,CACTCCCGACCCTTTCCGCATCATCACGCTCACGCAGCCCCGGAGTCACCTAGTGCAG,5290 fluorescence intensity (a.u.)
5,CGCGGATCGGCCGCGAGGCGCACGTGGACATCACCACCAACGGAGTCACCTAGTGCAG,4220 fluorescence intensity (a.u.)
6,AAATGTTTATTATAGCACCACATTGTCAGATCATAGAGCACGGAGTCACCTAGTGCAG,3450 fluorescence intensity (a.u.)
7,CATATCTCTGCAGTATGTGTTACACTGTCATCTTTTCATGCGGAGTCACCTAGTGCAG,4380 fluorescence intensity (a.u.)
8,GATATGATTATTTATTTCTTTAAATGAAAATCATGTGTAACGGAGTCACCTAGTGCAG,32500 fluorescence intensity (a.u.)
9,AGACCATGCTCCCGGAGCGCGTCGACAAGCTCGGCGACGCCGGAGTCACCTAGTGCAG,3450 fluorescence intensity (a.u.)
10,CGATGACTCGTAATTTAATGTTTCATACCTCGCTTTATACCGGAGTCACCTAGTGCAG,3530 fluorescence intensity (a.u.)
11,GTCGGTGTCGACGTCGGCCACCGACACGTCGTCCGCCGCGCGGAGTCACCTAGTGCAG,5560 fluorescence intensity (a.u.)
12,CAATAAACCGGTGGTTGGACCGGTCCAACCAATAAACCAGCGGAGTCACCTAGTGCAG,43900 fluorescence intensity (a.u.)
13,GCTGCAGCCATACATGACGACGCTTCAATTAGCATGTACTCGGAGTCACCTAGTGCAG,4260 fluorescence intensity (a.u.)
14,CAGACTCGCAGCCACTGGAACGCGAAATATTTCGGCTCCTCGGAGTCACCTAGTGCAG,3190 fluorescence intensity (a.u.)
15,CCGCCAGTGAAATCACGGCCGGTTTAACCTCTACATATATCGGAGTCACCTAGTGCAG,32300 fluorescence intensity (a.u.)
16,CATGCTATGTCTCAGAAAGATATATGACTGACTCAGGTCTCGGAGTCACCTAGTGCAG,4060 fluorescence intensity (a.u.)
17,TCCGTTCTGTTTATGAATAACGGTCGAAAACGTAATAACCCGGAGTCACCTAGTGCAG,46300 fluorescence intensity (a.u.)
18,GTGTTGGTTTCTACCATTAAATCCACATATTAATCATCCTCGGAGTCACCTAGTGCAG,3440 fluorescence intensity (a.u.)
19,ATCGCCCATGTGCGCGCATCACCGTCACCACGCCTGCCTTCGGAGTCACCTAGTGCAG,4140 fluorescence intensity (a.u.)
20,TTTTCGGATCAAATTGCCACGTAAGCGCCACGTCAGATGACGGAGTCACCTAGTGCAG,16000 fluorescence intensity (a.u.)
21,CGTCCCCTTTTATCTCATGGCCAAGGTGGCGCCATCTCCACGGAGTCACCTAGTGCAG,4570 fluorescence intensity (a.u.)
